# Measured values: patent US20240076398A1
# Sequences of proteins named here, by UniProt entry; tags and fusion partners are left off. A change or cut given only in a name is not applied to a line headed by its entry.
# UniProt P21730: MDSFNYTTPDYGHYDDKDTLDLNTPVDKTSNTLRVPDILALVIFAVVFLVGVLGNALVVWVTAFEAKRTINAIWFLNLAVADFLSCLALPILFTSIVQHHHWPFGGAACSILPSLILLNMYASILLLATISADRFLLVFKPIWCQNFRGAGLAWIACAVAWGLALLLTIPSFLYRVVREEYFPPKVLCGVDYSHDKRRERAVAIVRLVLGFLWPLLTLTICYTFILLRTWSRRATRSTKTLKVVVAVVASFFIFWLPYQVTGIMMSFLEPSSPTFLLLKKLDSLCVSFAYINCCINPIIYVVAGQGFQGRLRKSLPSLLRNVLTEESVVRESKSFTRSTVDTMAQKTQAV
# Results are given in words; binding and its absence hold for the method and conditions named. Some entries that bind do so weakly or less than the wild type.
# Molecular target: biotinylated cyclic ECL2 peptide of C5aR1 (human)
# Test: peptide epitope mapping
row,Binder,binding
1,"Clone_329 (antibody, V domains shown) VH: QVQLQQSGAELTKPGASVKLSCKASGYTFTNYWMHWVKQRPGQGLEWIGYLNPSSGYTKYNQKFKDKATLTADKSSSTAYMQLNSLTYEDSAVYYCTRSGGDNYGNPYYFDRWGQGTTVTVSS VL: DVVMTQTPLSLTVSLGDQASISCRSSQSLVHSNGNTYLHWYLQKPGQSPKFLIYKVSNRFSGVPDRFSGSGSGTDFRLKISRVEAEDLGVYFCSQSTLVPLTFGAGTKLEIK",binds

# Molecular target: biotinylated cyclic ECL2 peptide of C5aR1 (human)
# Test: BLI, peptide on streptavidin sensor
row,Binder,binding
1,"Clone_588 (antibody, V domains shown) VH: DVQLQESGPGLVKPSQSLSLTCTVTGYSITSDYAWNWIRQFPGNKLEWMGYISYSGSIRYNPSLKSRISITRDTSKNQFFLQLNSVTTEDTATYYCAITTGGYFDYWGQGTTLTVSS VL: DIQMTQSTSSLSASLGDRVTISCRASQDISNYLNWYQQTPDGTVKLLIYQISRLHSGVPSRFSGSGSGTDYSLTISNLEEEDIANYFCQQGNSLPPTFGGGTKVEIK",binds
2,"Clone_511 (antibody, V domains shown) VH: QVQLQQSGAELAKPGASVKLSCKTSGYTFTNYWMHWIKQRPGLGLEWIGYINPSGDYTKHNQKFKDKATLTADRSSSTAYMQLSSLTYEDSAVYYCARVPLSYGSGNGPYYFDYWGQGTTLTVSS VL: DVVMTQTPLSLPVSLGDHASISCRSSQSLVHSNGNIYLHWYLQRPGQSPKLLIHKVSNRFSGVPDRFSGSGSGTDFTLKISRVEAEDVGIYFCSQSTLVPLTFGSGTKLELK",binds
3,"antibody 317 (antibody, V domains shown) VH: QVQLQQPGAELVMPGASVKLSCKASGYTFTSYWLHWVRQRPGQGLEWIGEIDPSDGYSNHNQKFKGKATLTVDKSSSTAYMQLSSLTSEDSAVYYCATEGFWGQGTTVTVSS VL: DIVMTQSPSSLSVSAGEKVTMSCKSSQSLLKSGNQKNYLAWHQQKPGQPPKLLIYGASTRESGVPDRFTGSGSGTDFTLTISSVQAEDLAVYYCQNDHSHPYTFGGGTKLEIK",binds
4,"Clone_453 (antibody, V domains shown) VH: QVQLKQSGPGQVAPSQSLSITCTVSGFSLINSAVHWVRQSPGKGLEWLGVIWSDGSTDYNTAFISRLSISRDNSKSQVFFKMRSLQVDDTAVYYCARNGRLGNAMDYWGQGTSVTVSS VL: DIVMTQSPSSLAVSVGEKVTMSCKSSQSLFSSRTRKNYLAWYQQKPGQSPKLLIYWASTRESGVPYRFTGSGSGTDFTLTISSVQTEDLAVYYCKQSYNLLTFGAGTKLEL",binds
5,"Clone_329 (antibody, V domains shown) VH: QVQLQQSGAELTKPGASVKLSCKASGYTFTNYWMHWVKQRPGQGLEWIGYLNPSSGYTKYNQKFKDKATLTADKSSSTAYMQLNSLTYEDSAVYYCTRSGGDNYGNPYYFDRWGQGTTVTVSS VL: DVVMTQTPLSLTVSLGDQASISCRSSQSLVHSNGNTYLHWYLQKPGQSPKFLIYKVSNRFSGVPDRFSGSGSGTDFRLKISRVEAEDLGVYFCSQSTLVPLTFGAGTKLEIK",binds
6,"Clone_518 (antibody, V domains shown) VH: QVQLQQSGAELAKPGASVKLSCKTSGYTFTNYWMHWIKQRPGLGLEWIGYINPSGDYTKHNQKFKDKATLTADRSSSTAYMQLSSLTYEDSAVYYCARVPLSYGSGNGPYYFDYWGQGTTLTVSS VL: DVVMTQTPLSLPVSLGDHASISCRSSQSLVHSNGNTYLHWYLQRPGQSPKLLIHKVSNRFSGVPDRFSGSGSGTDFTLKISRVEAEDVGIYFCSQSTLVPLTFGSGTKLELK",binds
7,"Clone_584 (antibody, V domains shown) VH: DVQLQESGPDLVKPSQSLSLTCTVTGYSITSGYSWHWIRQSPGNKLEWLAYIHNSGSTNYNPSLKSRISITRDTSKNQFFLKLNSVTTEDTATYYCARSIGDYWGQGTTLAVSS VL: DVVMTQTPLSLPVSLGDRASISCRSGQSLVHSNGNTYLHWYLQRPGRSPNLLIYKVSNRFSGVPDRFSGSGSGTDFTLKISRVEAEDLGVYFCSQSTHVPWTFGGGTKLEIK",binds
8,"antibody 343 (antibody, V domains shown) VH: QVQLQQSGAELVKPGASVKLSCKASGYTFTEYTIHWVNQRSGQGLEWIGWFYPGSGSIKYNEKFKDKATLTADKSSHTVYMELSRLTSEDSAVYFCARHGNYYDGSWFAYWGQGTLVTVSA VL: DVQITQSPSYLAASPGETITINCRASKSISKYLAWYQEKPGKTNKLLIYSGSTLQSGIPSRFSGSGSGTDFTLTISSLEPEDFAMYYCQQHDEYPWTFGGGTKLEIK",binds
9,"Clone_336_V2-1 (antibody, V domains shown) VH: QVQLKQSGPGLVQSSQSLSITCTVSGFSLISYGVHWVRQSPGKGLEWLGVIWSGGSTDYNAAFKSRLSITKDNSKSQVFFKMNSLQADDTAIYYCAKNSQLGNAMDYWGQGTTVTVSS VL: DIVMSQSPSSLAVSAGEKVTMSCKSSQSLLSSRTRKNYLAWYQQKPGQSPKLLIYWASTRESGVPDRFTGSGSGTDFTLTISSVQAEDLALYFCNQSYDLLTFGAGTKLEIK",binds

# Molecular target: biotinylated N-terminal peptide of C5aR1 without tyrosine sulfation (human)
# Test: BLI, peptide on streptavidin sensor
row,Binder,binding
1,"Clone_583 (antibody, V domains shown) VH: EVQLVESGGGLVKPGGSLKLSCAASGFTFNAYAMSWVRQTPEKRLEWVASISTGGNTYCPDSVKDRFTVSRDNVRNILYLQMSSLRSEDTAMYYCTRGYQRFSGFAYWGQGTLVTVS VL: DVVMTQTPLSPPVSLGYQASISCRSSQSLVHSNGNTYLNWYLQKPGQSPKLLIYKVSNRLSGVPDRFSGSGSGTDFTLKISRVETEDLGVYFCSQSTHVPYTFGGGTKLEIK",binds
2,"Clone_402 (antibody, V domains shown) VH: QIQLVQSGPELKKPGETVKISCKASGYTFTTFGMSWVKQAPGKGLKWMGWINTNSGMPTYTDDFRGRFAFSLETSASTAYLQISSLKNEDTATYFCARKSLFYWGQGTTLTVSS VL: DVVMTQSPLTLSVTIGQPASISCRSSRSLLDSDGKTKLHWLLQRPGQSPKSLIYLVSKLDSGVPNRFTGGGSGTDFTLKINRVEAEDLGVYYCWQGTHFPWTFGVGTKLEIK",binds

# Molecular target: human C5aR1 (complement component 5a receptor 1) (human) (UniProt P21730)
# Test: flow cytometry on human neutrophils, titration 10^-7.5 to 10^-12 M
row,Binder,binding
1,"Clone_66 (antibody, V domains shown) VH: QVQLQQSDAELVKPGASVKISCKASGYTFIDHAIHWVKQRPEQGLEWIGYISPGNGEIKYNEKFKAKATLTADKSSSAAYMQLNSLTSADSAVYFCKRALFYYTGKYQPMDYWGQGTTVTDSS VL: DIVMTQSQKFMSTTAGDRVSITCKASQNVGSAVVWYQQKPGRSPKLLIYSSSIRYTGVPDRFTGSGSGTDFTLTINSVQSEDLADYFCQQYNSFPLTFGAGTKLEIK",binds
